Data: paper PMC11982335
These are yes or no findings as the source states them, for the method shown. Binding seen in cells or lysates may run through a third protein. Some entries that bind do so weakly or less than the wild type.

Chains of the proteins cited; added tags and fusions are not shown.
UniProt Q9NRL2: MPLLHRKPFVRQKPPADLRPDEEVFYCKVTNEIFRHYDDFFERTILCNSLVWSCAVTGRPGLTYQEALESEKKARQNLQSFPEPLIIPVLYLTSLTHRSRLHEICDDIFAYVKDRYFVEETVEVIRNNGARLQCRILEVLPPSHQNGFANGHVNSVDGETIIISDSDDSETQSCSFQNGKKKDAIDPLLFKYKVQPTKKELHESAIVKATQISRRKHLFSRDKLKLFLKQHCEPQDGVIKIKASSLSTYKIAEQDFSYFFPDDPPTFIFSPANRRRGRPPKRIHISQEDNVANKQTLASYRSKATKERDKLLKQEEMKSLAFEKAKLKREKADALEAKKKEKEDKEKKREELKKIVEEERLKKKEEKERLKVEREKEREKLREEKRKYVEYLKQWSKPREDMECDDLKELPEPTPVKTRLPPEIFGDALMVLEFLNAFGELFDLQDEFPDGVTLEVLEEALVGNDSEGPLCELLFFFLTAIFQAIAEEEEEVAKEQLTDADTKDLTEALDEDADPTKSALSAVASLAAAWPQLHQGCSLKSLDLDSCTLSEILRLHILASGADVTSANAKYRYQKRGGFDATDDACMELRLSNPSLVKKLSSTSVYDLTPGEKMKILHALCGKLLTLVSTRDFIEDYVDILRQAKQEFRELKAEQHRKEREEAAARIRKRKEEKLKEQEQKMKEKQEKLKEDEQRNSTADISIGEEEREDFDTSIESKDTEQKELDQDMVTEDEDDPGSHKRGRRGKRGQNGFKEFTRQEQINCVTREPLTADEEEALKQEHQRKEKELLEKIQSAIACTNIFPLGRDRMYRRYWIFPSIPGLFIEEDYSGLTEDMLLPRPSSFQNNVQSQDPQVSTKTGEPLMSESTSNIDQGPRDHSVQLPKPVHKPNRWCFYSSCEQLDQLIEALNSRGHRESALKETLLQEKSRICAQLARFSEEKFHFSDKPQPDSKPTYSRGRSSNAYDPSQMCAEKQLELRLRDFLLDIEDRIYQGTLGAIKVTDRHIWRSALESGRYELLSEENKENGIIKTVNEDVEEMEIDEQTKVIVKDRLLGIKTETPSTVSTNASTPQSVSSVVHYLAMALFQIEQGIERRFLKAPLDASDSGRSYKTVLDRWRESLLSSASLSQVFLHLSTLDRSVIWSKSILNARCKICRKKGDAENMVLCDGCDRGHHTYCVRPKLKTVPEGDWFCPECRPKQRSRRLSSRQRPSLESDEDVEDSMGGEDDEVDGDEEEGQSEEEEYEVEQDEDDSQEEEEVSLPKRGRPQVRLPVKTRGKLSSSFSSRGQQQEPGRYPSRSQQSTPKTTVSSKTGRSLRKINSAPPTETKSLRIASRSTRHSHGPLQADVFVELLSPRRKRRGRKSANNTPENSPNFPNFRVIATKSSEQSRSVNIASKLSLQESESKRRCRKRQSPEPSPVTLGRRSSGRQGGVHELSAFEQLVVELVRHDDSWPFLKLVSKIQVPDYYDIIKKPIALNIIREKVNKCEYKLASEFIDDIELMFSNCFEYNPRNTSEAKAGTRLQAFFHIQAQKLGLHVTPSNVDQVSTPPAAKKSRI
UniProt P48431: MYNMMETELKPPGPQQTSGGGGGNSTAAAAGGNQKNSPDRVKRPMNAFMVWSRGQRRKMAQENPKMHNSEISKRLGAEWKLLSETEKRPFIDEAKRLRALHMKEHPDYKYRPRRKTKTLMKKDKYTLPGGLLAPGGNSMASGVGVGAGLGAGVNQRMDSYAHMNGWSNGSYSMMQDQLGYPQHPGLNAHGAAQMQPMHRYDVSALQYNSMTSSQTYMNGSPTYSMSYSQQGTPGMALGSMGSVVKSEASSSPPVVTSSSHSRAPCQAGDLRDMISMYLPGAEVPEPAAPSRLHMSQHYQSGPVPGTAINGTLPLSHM
UniProt Q14839: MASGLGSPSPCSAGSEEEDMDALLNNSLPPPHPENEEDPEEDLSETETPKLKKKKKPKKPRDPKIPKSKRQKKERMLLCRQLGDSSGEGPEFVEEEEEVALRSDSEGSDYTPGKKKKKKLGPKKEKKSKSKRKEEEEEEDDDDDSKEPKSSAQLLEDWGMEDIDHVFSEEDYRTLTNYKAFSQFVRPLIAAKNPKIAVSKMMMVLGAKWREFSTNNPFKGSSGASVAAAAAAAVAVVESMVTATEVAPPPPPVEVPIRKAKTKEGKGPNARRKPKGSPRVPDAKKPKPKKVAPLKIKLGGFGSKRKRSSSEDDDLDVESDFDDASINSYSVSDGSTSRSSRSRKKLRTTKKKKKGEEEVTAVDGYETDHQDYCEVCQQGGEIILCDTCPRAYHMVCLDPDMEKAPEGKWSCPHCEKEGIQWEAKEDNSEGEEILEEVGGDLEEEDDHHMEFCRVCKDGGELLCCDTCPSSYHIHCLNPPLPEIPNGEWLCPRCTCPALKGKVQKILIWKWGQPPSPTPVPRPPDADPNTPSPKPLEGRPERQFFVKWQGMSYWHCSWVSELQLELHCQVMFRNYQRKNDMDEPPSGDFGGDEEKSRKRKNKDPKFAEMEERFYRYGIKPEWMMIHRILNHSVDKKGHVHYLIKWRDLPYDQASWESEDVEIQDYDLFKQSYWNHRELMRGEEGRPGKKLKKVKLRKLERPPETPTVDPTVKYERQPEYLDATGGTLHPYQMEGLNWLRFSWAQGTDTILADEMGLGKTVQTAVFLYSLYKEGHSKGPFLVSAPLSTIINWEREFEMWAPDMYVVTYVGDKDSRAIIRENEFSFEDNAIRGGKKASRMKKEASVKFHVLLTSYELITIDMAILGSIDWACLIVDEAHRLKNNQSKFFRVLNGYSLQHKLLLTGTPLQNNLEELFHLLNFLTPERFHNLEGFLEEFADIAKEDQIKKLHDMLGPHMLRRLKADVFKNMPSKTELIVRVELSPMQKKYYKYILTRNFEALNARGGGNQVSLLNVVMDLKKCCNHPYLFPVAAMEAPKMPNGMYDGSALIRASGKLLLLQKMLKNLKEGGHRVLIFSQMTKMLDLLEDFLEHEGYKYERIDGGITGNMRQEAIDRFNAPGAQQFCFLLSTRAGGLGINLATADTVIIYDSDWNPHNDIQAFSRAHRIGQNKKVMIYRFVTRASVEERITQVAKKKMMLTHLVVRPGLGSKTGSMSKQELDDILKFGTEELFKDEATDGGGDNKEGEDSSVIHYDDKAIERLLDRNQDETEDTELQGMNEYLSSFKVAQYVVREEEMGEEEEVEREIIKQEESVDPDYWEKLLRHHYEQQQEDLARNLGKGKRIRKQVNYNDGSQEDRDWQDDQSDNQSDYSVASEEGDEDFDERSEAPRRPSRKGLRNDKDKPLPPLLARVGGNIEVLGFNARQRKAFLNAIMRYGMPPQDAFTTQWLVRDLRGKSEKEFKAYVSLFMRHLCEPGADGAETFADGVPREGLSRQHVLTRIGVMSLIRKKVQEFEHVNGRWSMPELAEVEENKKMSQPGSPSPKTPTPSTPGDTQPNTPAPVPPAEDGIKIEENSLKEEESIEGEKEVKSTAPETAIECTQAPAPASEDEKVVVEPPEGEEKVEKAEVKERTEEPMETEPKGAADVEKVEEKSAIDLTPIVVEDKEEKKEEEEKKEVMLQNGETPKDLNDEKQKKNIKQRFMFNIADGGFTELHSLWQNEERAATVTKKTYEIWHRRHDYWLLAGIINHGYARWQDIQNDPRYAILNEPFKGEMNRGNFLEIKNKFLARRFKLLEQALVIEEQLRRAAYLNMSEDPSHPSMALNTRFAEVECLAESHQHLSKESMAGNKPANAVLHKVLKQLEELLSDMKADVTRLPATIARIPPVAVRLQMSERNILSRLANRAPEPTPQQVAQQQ
UniProt Q13547: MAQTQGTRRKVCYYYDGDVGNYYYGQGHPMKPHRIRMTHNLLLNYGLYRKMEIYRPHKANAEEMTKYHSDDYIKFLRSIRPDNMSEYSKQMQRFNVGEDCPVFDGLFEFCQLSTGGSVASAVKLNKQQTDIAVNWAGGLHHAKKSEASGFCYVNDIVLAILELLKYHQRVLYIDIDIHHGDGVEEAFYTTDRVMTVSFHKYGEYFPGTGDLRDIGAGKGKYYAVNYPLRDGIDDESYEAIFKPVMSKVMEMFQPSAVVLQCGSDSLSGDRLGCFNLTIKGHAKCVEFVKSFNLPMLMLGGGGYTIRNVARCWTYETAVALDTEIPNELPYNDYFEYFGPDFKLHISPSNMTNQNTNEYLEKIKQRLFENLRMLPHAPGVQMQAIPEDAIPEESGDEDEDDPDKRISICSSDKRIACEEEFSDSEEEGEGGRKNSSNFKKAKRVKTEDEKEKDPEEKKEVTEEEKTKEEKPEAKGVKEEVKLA

How the values were obtained:
[1] = target: Flag-BAZ1A (in Cal-27 cells) (UniProt Q9NRL2); test: co-IP; stepwise IP-re-IP in Cal-27 cells transfected with Flag-BAZ1A and Myc-SOX2; first round anti-FLAG antibody, second round (re-IP) anti-Myc antibody
[2] = target: Flag-BAZ1A (in Cal-27 cells) (UniProt Q9NRL2); test: co-IP; Cal-27 cells transfected with Flag-BAZ1A and Myc-SOX2; first round of IP with an anti-FLAG antibody
[3] = target: Myc-SOX2 (in Cal-27 cells) (UniProt P48431); test: co-IP; stepwise IP-re-IP in Cal-27 cells transfected with Flag-BAZ1A and Myc-SOX2; first round anti-FLAG antibody, second round (re-IP) anti-Myc antibody
FL BAZ1A (in 293T cells) = FL BAZ1A (in 293T cells) (UniProt Q9NRL2); test: co-IP; 293T cells transfected with the indicated plasmids, immunoblot of immunoprecipitates; also with or without USP10 plasmids
[4] = target: USP10 (ubiquitin-specific peptidase 10), endogenous (human (endogenous; cell line not stated, all lines of the paper are human)) (UniProt Q14694); test: co-IP; endogenous proteins, co-IP and western blotting

| Substance | binding [2] | binding [3] | other results |
| --- | --- | --- | --- |
| Myc-SOX2 (in Cal-27 cells) (from UniProt P48431 1-317) | – | – | binding [1]: binds |
| CHD4 (from UniProt Q14839 1-1912) | binds | no binding | – |
| HDAC1 (from UniProt Q13547 1-482) | binds | no binding | – |
| SOX2 (SRY-box transcription factor 2), in 293T cells (from UniProt P48431 1-317) | – | – | binding (FL BAZ1A (in 293T cells)): binds |
| BAZ1A (bromodomain adjacent to zinc finger domain, 1A), endogenous (from UniProt Q9NRL2 1-1556) | – | – | binding [4]: binds |
